In US9422583B2, “Stereospecific carbonyl reductases” (RUTGERS, THE STATE UNIVERSITY OF NEW JERSEY, priority 2009, dated 2016):
Some of these results come from one statement about several compounds together.

B1: SCR1: stereospecific carbonyl reductase from C. parapsilosis, GenBank FJ939565, recombinant with C-terminal His6 tag (protein, listed as Candida parapsilosis)
chain: MSKDETISYCNDQLGPLPTTAPKVSDNVTDLFSFKGKVVSVTGSSGGIGWAVAEGFAQAGADVAIWYHSHNADEKAKYLQEKYGVKSIAYGCNIGVAEEVQKTVDQIESDFGKIDVFVANAGIPWTDGPEIDVQDLSKWTKIIDTDLNSVYYCAHAIGPIFRKQGKGSLVITASMSATIVNVPQLQAAYNVAKAGVKHLSKSLAVEWAPFARVNSVSPGYISTNLTTFANPDLQKKWVQLTPLGREGHPKELVGAYLYLASDAATFTTGCDLAVDGGYTVP
modifications: C-terminal His6 tag
B2: SCR2: stereospecific carbonyl reductase from C. parapsilosis, GenBank FJ939563, recombinant with C-terminal His6 tag (protein, listed as Candida parapsilosis)
chain: MGEIESYCNKELGPLPTKAPTLSKNVLDLFSLKGKVASVTGSSGGIGWAVAEAYAQAGADVAIWYNSHPADEKAEHLQKTYGVRSKAYKCNISDPKSVEETISQQEKDFGTIDVFVANAGVPWTEGPEINVDNYDSWNKIINLDLNGVYYCAHTVGKIFKKNGKGSLVITSSMSGTIVNVPQLQAAYNAAKAACTHLTKSLAVEWAPFARVNCVSPGYIATEISDFVEKDMKAKWWQLTPLGREGLAQELVGAYLYLASNASTYTTGANLAVDGGYTCP
modifications: C-terminal His6 tag
B3: SCR3: stereospecific carbonyl reductase from C. parapsilosis, GenBank FJ939564, recombinant with C-terminal His6 tag (protein, listed as Candida parapsilosis)
chain: MGEIESYCNKELGPLPTKAPTLAKNVLDLFSLKGKVASVTGSSGGIGWAVAEAYAQAGADVAIWYNSHPADEKAEHLQKTYGVRSKAYKCNISDPKSVEETISQQEKDFGTIDVFVANAGIPWADGPVIDLENYDAWNKLINTDINGVFYCAHSIGKIFKKNGKGSLIITASLAGSVVTIPQQQTPYNTAKAACLHLAKSLAVEWAPFARVNTVSPGYFETEINGFADEDMREKWYQLTPLGRMGITEELVGGYLYFASNASTFTTGSDLIIDGGFTCP
modifications: C-terminal His6 tag

test: Asymmetric reduction and stereoselectivity assay (chiral HPLC of product); format: biochemical; conditions: substrate 2-hydroxyacetophenone, NADPH, 30° C., 6 h, pH 6.5

Q: For B1, which “optical purity of product (S)-1-phenyl-1,2-ethanediol” value (“optical purity of product” below) is on record?
A: > 99 % e.e.

Q: For B2, which “optical purity of product” value is on record?
A: > 99 % e.e.

Q: Which “optical purity of product” value does the source give for B3 here?
A: > 99 % e.e.
